Counter-ions that a name gives are not always drawn. Like-named read-outs stand apart in the source and are kept apart here. The whole screen tested about 3,300 compounds, of which about 60 (2%) showed an effect of 50% or more. The list shows a part of the results.

The record followed here is article PMC12431657, “Discovery and mechanistic insights of dibenzoylmethane as a broad spectrum inhibitor of coronavirus” (PLOS Pathogens, 2025).

The test system of this test is HCoV-OC43. The arrangement: species or system RD; HTS, protection from HCoV-OC43 induced cell death, luminescent cell viability (CellCounting-Lite 2.0), inhibition rate. As to conditions: 24 h post infection, 1 h compound pre-incubation, 10 µM, inhibitor.

Regarding `Cc1cc(O)c2c(=O)c3c(O)cc(O)c4c5c(O)cc(O)c6c(=O)c7c(O)cc(C)c8c1c2c(c34)c(c78)c65` [Hypericin], the “OC43 Inhibition rate” value came to 23.9%.
Same read-out and setting: as for `C[C@]12CC[C@@H]3c4ccc(O)cc4CC[C@H]3[C@@H]1CC[C@H]2O` [Alpha-Estradiol], the figure is -0.1%; as for `CCCCCCCCCC(=O)NCc1ccc(O)c(OC)c1` [N-Vanillyldecanamide], -0.1%.
With `C/C=C1/CN2[C@@H]3C[C@@]45c6ccccc6N[C@]4(O3)[C@@H]2C[C@@H]1[C@H]5C(=O)OC` [Picrinine], the “OC43 Inhibition rate” value came to 0%.
For `C[C@@H]1CC[C@]2(C(=O)O)CC[C@]3(C)C(=CC[C@@H]4[C@@]5(C)CC[C@H](O)[C@](C)(C(=O)O)[C@@H]5CC[C@]43C)[C@@H]2[C@]1(C)O` [Ilexgenin A], the “OC43 Inhibition rate” value was determined as 0.7%.
On the same count and under the same terms, as for `C[C@@H]1O[C@@H](O[C@H]2[C@H](O[C@H]3CC[C@@]4(C)[C@@H](CC[C@]5(C)[C@@H]4CC=C4[C@@H]6CC(C)(C)CC[C@]6(C(=O)O[C@@H]6O[C@H](CO[C@@H]7O[C@H](CO)[C@@H](O[C@@H]8O[C@@H](C)[C@H](O)[C@@H](O)[C@H]8O)[C@H](O)[C@H]7O)[C@@H](O)[C@H](O)[C@H]6O)CC[C@]45C)[C@]3(C)CO)OC[C@H](O)[C@@H]2O)[C@H](O)[C@H](O)[C@H]1O` [Hederacoside C], the figure is -0.4%; as for `c1cc2c(cc1O[C@H]1OC[C@H]3[C@@H]1CO[C@@H]3c1ccc3c(c1)OCO3)OCO2` [Sesamolin], -1.4%.
Same read-out and setting: the figure for `COc1ccc([C@H]2OC[C@H]3[C@@H]2CO[C@H]3c2cc(OC)c(OC)c(OC)c2)cc1OC` [Epimagnolin A] is -0.7%.
On the same count and under the same terms, the figure for `COC(=O)c1ccccc1C(=O)O` [Monomethyl phthalate] is -0.1%.
For `CC(C)=CCC/C(C)=C/CC/C(C)=C/CC/C(C)=C/CC/C(C)=C/CC/C(C)=C/CC/C(C)=C/CC/C(C)=C/CC/C(C)=C/CO` [Solanesol], the “OC43 Inhibition rate” value turned out to be 6.4%.
Regarding `O=C1O[C@H]([C@@H](O)CO)C(O)=C1O` [L-Ascorbic acid], the “OC43 Inhibition rate” value (OC43 Inhibition rate, 24 h) stood at 0.3%.
As for `C/C=C(/C)C(=O)O[C@@H]1c2c(ccc3ccc(=O)oc23)OC(C)(C)[C@@H]1OC(C)=O` [Pteryxin], the “OC43 Inhibition rate” value is recorded as -0.2%.
On to `O=c1c(-c2ccc(O)cc2)coc2c([C@@H]3O[C@H](CO)[C@@H](O)[C@H](O)[C@H]3O)c(O)ccc12` [Puerarin], for which the “OC43 Inhibition rate” value is given as 1.4%.
Turning to `COc1cc(O)c(CC=C(C)C)c(O)c1C(=O)/C=C/c1ccc(O)cc1` [Xanthohumol], the “OC43 Inhibition rate” value is listed as 28.2%.
Take `C[C@@H]1CC[C@@]2(OC1)O[C@H]1C[C@H]3[C@@H]4CC=C5C[C@@H](O)C[C@@H](O[C@@H]6O[C@H](C)[C@H](O)[C@H](O[C@@H]7OC[C@@H](O)[C@H](O)[C@H]7O)[C@H]6O[C@@H]6O[C@H](CO)[C@@H](O)[C@H](O)[C@H]6O)[C@]5(C)[C@H]4CC[C@]3(C)[C@H]1[C@@H]2C` [Saponin C, from Liriope muscari]: the “OC43 Inhibition rate” value is 66.4%.
`CC(=O)O[C@]1(C)CC[C@@]23C[C@@H]1C(C)(C)[C@@H]2CC[C@H]3C` [Cedryl acetate]: the “OC43 Inhibition rate” value is 0%.
Same read-out and setting: the figure for `C[C@@H]1O[C@@H](O[C@H]2[C@H](OC(=O)[C@]34CCC(C)(C)C[C@H]3C3=CC[C@@H]5[C@@]6(C)C[C@H](O)[C@@H]7O[C@@H]8O[C@H](CO)[C@@H](O)[C@H](O)[C@H]8O[C@@H]8OC[C@H](O)[C@H](O)[C@H]8OC(=O)C[C@@](C)(O)CC(=O)OC[C@@]7(C)[C@@H]6CC[C@@]5(C)[C@]3(C)CC4)OC[C@H](O)[C@@H]2O)[C@H](O)[C@H](O[C@@H]2OC[C@@H](O)[C@H](O)[C@H]2O)[C@H]1O` [Tubeimoside I] is 57.2%; for `CC(C)C1=CC2=CC[C@@H]3[C@](C)(CCC[C@@]3(C)C(=O)O)[C@H]2CC1` [Abietic acid] it is -1%.
As for `C[C@H](CCC(=O)NCC(=O)O)[C@H]1CC[C@H]2[C@@H]3CC[C@@H]4C[C@H](O)CC[C@]4(C)[C@H]3C[C@H](O)[C@]12C` [Glycodeoxycholic Acid], the “OC43 Inhibition rate” value (OC43 Inhibition rate, 24 h) was 1%.
As for `COc1cc(O)c2c(=O)cc(-c3ccccc3)oc2c1` [Tectochrysin], the “OC43 Inhibition rate” value was found to be 18.2%.
Same read-out and setting: the figure for `COc1cc(CCO[C@@H]2O[C@H](CO[C@@H]3O[C@H](CO)[C@@H](O)[C@H](O)[C@H]3O)[C@@H](OC(=O)/C=C/c3ccc(O)c(O)c3)[C@H](O[C@@H]3O[C@@H](C)[C@H](O)[C@@H](O)[C@H]3O)[C@H]2O)ccc1O` [Cistanoside A] is -3%; for `O=C(O)c1ccc(O)cc1O` [2,4-Dihydroxybenzoic acid] it is 2.4%.
Same read-out and setting: the figure for `COC(=O)C1=CO[C@@H](O[C@@H]2O[C@H](CO)[C@@H](O)[C@H](O)[C@H]2O)[C@@H]2[C@@H](C)CC(=O)[C@]12O` [Hastatoside] is -0.3%.
On the same count and under the same terms, as for `C[C@@H]1O[C@@H](O[C@H]2C[C@@H](O)[C@]3(CO)[C@H]4[C@H](O)C[C@]5(C)[C@@H](C6=CC(=O)OC6)CC[C@]5(O)[C@@H]4CC[C@]3(O)C2)[C@H](O)[C@H](O)[C@H]1O` [Ouabain (Octahydrate)], the figure is -12.2%.
Take `CC1(C)C[C@H]2C3=CC[C@@H]4[C@@]5(C)CC[C@H](O)[C@@](C)(CO)[C@@H]5CC[C@@]4(C)[C@]3(C)C[C@H](O)[C@@]2(CO)[C@@H](O)[C@@H]1O` [Gymnemagenin]: the “OC43 Inhibition rate” value is recorded as -1%.
On to `COc1ccc(/C=C/C(=O)c2c(O)cc(OC)cc2OC)cc1` [Flavokawain A], for which the “OC43 Inhibition rate” value was 4%.
With `C=C1CC23C[C@H]4[C@@H]5[C@@]6(C)C[C@H](OC(C)=O)C[C@]57C(N4C6)[C@@]2(O)[C@H](OC(C)=O)[C@H]1[C@@H](O)[C@H]37` [Guanfu base A], the “OC43 Inhibition rate” value is -0.6%.
Same read-out and setting: as for `C=C(C)[C@@H]1CC[C@]2(C(=O)O)CC[C@]3(C)[C@H](CC[C@@H]4[C@@]5(C)CC[C@H](O)[C@@](C)(CO)[C@@H]5CC[C@]43C)[C@@H]12` [23-Hydroxybetulinic acid], the figure is 7.9%.
For `O=c1cc(-c2ccc(O)c(-c3c(O)cc(O)c4c(=O)cc(-c5ccc(O)cc5)oc34)c2)oc2cc(O)cc(O)c12` [Amentoflavone], the “OC43 Inhibition rate” value was found to be 7%.
The same measure, in the same setting: the figure for `CC(C(=O)c1ccc(O)cc1O)c1ccc(O)cc1` (stereo not shown) [O-Desmethylangolensin] is 3.3%.
Turning to `O=C(O)C(=O)O` [Oxalic Acid], for the setting “OC43 Inhibition rate, 24 h”, the “OC43 Inhibition rate” value was -0.7%.
On to `C1CCN2C[C@@H]3C[C@@H](CN4CCCC[C@@H]34)[C@H]2C1` [(-)-Sparteine], for which the “OC43 Inhibition rate” value stood at 2.9%.
The same measure, in the same setting: the figure for `COc1ccc2c(OC)c3ccoc3nc2c1OC` [Skimmianine] is 0.3%.
With `COc1ccc(CCC(=O)c2ccc(O)cc2)c(OC)c1` [Loureirin A], the “OC43 Inhibition rate” value was determined as 2.8%.
The same measure, in the same setting: as for `COc1cc2oc(-c3ccc(O)cc3)cc(=O)c2c(O)c1OC` [Cirsimaritin], the figure is 0%; as for `CC(=O)O[C@H]1C(=O)c2c(O)cc(O)cc2O[C@@H]1c1ccccc1` [Pinobanksin 3-acetate], 0.6%.
Same read-out and setting: the figure for `CCCCCCCCCCCCCCCCCCO` [1-Hydroxyoctadecane] is -3.5%; for `COc1cc(O)cc(O)c1C(=O)/C=C/c1ccccc1` [Cardamonin] it is 2.4%.
`COc1cc(C)c2c(=O)c(-c3ccccc3)coc2c1` [5-Methyl-7-methoxyisoflavone]: the “OC43 Inhibition rate” value is reported as -0.3%.
On the same count and under the same terms, as for `COc1cc2oc(=O)ccc2c(OC)c1CC=C(C)C` [Toddaculin], the figure is 0.5%; as for `CC(C)=C[C@H]1C[C@](C)(O)[C@@H]2[C@H]3CC[C@@H]4[C@@]5(C)CC[C@H](O[C@@H]6OC[C@H](O)[C@H](O[C@@H]7O[C@H](CO[C@@H]8O[C@H](CO)[C@@H](O)[C@H](O)[C@H]8O)[C@@H](O)[C@H](O)[C@H]7O[C@@H]7OC[C@@H](O)[C@H](O)[C@H]7O)[C@H]6O[C@@H]6O[C@@H](C)[C@H](O)[C@@H](O)[C@H]6O)C(C)(C)[C@@H]5CC[C@@]4(C)[C@@]34CO[C@@]2(C4)O1` [Jujuboside A], -0.4%; as for `CC1=C(CC[C@@H](C)CO[C@@H]2O[C@H](CO)[C@@H](O)[C@H](O)[C@H]2O)O[C@H]2C[C@H]3[C@@H]4CC=C5C[C@@H](O[C@@H]6O[C@H](CO)[C@@H](O[C@@H]7O[C@@H](C)[C@H](O)[C@@H](O)[C@H]7O)[C@H](O)[C@H]6O[C@@H]6O[C@@H](C)[C@H](O)[C@@H](O)[C@H]6O)CC[C@]5(C)[C@H]4CC[C@]3(C)[C@@H]12` [Pseudoprotodioscin], -6.7%.
For `CC(=O)O[C@H]1Cc2c(cc3oc(C)cc(=O)c3c2O)OC1(C)C` [3'-O-Acetylhamaudol], the “OC43 Inhibition rate” value is given as 14.3%.
As to `COc1cc2c(cc1OC)-c1cc3ccc4c(c3c(=O)n1CC2)OCO4` [8-Oxoepiberberine], the “OC43 Inhibition rate” value amounted to 10.1%.
On the same count and under the same terms, as for `CCCCCC(=O)O[C@H](CC(=O)[O-])C[N+](C)(C)C` [L-Hexanoylcarnitine], the figure is -1%; as for `CC(C)CC1NC(=O)C(Cc2ccc(O)cc2)NC1=O` (stereo not shown) [Cyclo(Tyr-Leu)], -5.8%.
Consider `C[C@H]1CC[C@]2(NC1)O[C@H]1C[C@H]3[C@@H]4CC[C@H]5C[C@@H](O)CC[C@]5(C)[C@H]4CC[C@]3(C)[C@H]1[C@@H]2C` [Tomatidine (hydrochloride)], for which the “OC43 Inhibition rate” value (OC43 Inhibition rate, 24 h) was determined as 0.4%.
`CC1=C[C@]23C(=O)[C@@H](C=C(CO)[C@@H](O)[C@]2(O)[C@H]1O)[C@H]1[C@@H](C[C@H]3C)C1(C)C` [Ingenol]: the “OC43 Inhibition rate” value amounted to 5.5%.
As for `CC1=C(C=O)C(C)(C)C[C@H](O[C@@H]2O[C@H](CO)[C@@H](O)[C@H](O)[C@H]2O)C1` [Picrocrocin], the “OC43 Inhibition rate” value is recorded as -0.4%.
